Results reported in the supplement of paper PMC8728848.
This is one part of the list.

Legend:
Test in all cases: glycan array binding signal (z-score within array); higher = stronger binding
Details in all cases: glycan notation: IUPAC condensed, linker removed
[1] = biological target: Gal(a1-3)Gal(b1-4)GlcNAc(b1-2)Man
How it was run: (§1)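 Glycan array data were curated from 3228 arrays in the Consortium for Functional Glycomics database and kept only where the protein sequence was available. Glycan names were converted to IUPAC-condensed notation, and columns mapping to the same glycan were averaged. The binding signal is a within-array Z-score, averaged across arrays of the same protein sequence at different concentrations or buffers and across linkers. Negative Z-scores can be read as non-binding.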

[2] = biological target: Gal(a1-3)Gal(b1-4)GlcNAc(b1-2)Man(a1-3)[Gal(a1-3)Gal(b1-4)GlcNAc(b1-2)Man(a1-6)]Man(b1-4)GlcNAc(b1-4)GlcNAc
How it was run: as §1

[3] = biological target: Gal(a1-3)Gal(b1-4)GlcNAc(b1-3)GalNAc
How it was run: as §1

[4] = biological target: Gal(a1-3)Gal(b1-4)GlcNAc(b1-6)GalNAc
How it was run: as §1

[5] = biological target: Gal(a1-3)Gal(b1-4)[Fuc(a1-3)]GlcNAc
How it was run: as §1

[6] = biological target: Gal(a1-3)Gal(b1-4)[Fuc(a1-3)]GlcNAc(b1-2)Man(a1-3)[Gal(a1-3)Gal(b1-4)[Fuc(a1-3)]GlcNAc(b1-2)Man(a1-6)]Man(b1-4)GlcNAc(b1-4)GlcNAc
How it was run: as §1

Gal(a1-3)GalNAc = biological target: Gal(a1-3)GalNAc
How it was run: as §1

[7] = biological target: Gal(a1-3)[Gal(a1-4)]Gal(b1-4)GlcNAc
How it was run: as §1

[8] = biological target: Gal(a1-4)Gal(b1-3)GlcNAc(b1-2)Man(a1-3)[Gal(a1-4)Gal(b1-3)GlcNAc(b1-2)Man(a1-6)]Man(b1-4)GlcNAc(b1-4)GlcNAc
How it was run: as §1

Gal(a1-4)Gal(b1-4)Glc = biological target: Gal(a1-4)Gal(b1-4)Glc
How it was run: as §1

Gal(a1-4)Gal(b1-4)GlcNAc = biological target: Gal(a1-4)Gal(b1-4)GlcNAc
How it was run: as §1

[9] = biological target: Gal(a1-4)Gal(b1-4)GlcNAc(b1-2)Man(a1-3)[Gal(a1-4)Gal(b1-4)GlcNAc(b1-2)Man(a1-6)]Man(b1-4)GlcNAc(b1-4)GlcNAc
How it was run: as §1

[10] = biological target: Gal(a1-4)Gal(b1-4)GlcNAc(b1-3)Gal(b1-4)Glc
How it was run: as §1

Gal(a1-4)GlcNAc = biological target: Gal(a1-4)GlcNAc
How it was run: as §1

Gal(a1-6)Glc = biological target: Gal(a1-6)Glc
How it was run: as §1

Gal(b1-2)Gal = biological target: Gal(b1-2)Gal
How it was run: as §1

Gal(b1-3)Gal = biological target: Gal(b1-3)Gal
How it was run: as §1

Gal(b1-3)Gal(b1-4)GlcNAc = biological target: Gal(b1-3)Gal(b1-4)GlcNAc
How it was run: as §1

Gal(b1-3)GalNAc = biological target: Gal(b1-3)GalNAc
How it was run: as §1

[11] = biological target: Gal(b1-3)GalNAc(a1-3)[Fuc(a1-2)]Gal(b1-4)Glc
How it was run: as §1

[12] = biological target: Gal(b1-3)GalNAc(a1-3)[Fuc(a1-2)]Gal(b1-4)GlcNAc
How it was run: as §1

Gal(b1-3)GalNAc(b1-3)Gal = biological target: Gal(b1-3)GalNAc(b1-3)Gal
How it was run: as §1

[13] = biological target: Gal(b1-3)GalNAc(b1-3)Gal(a1-4)Gal(b1-4)Glc
How it was run: as §1

[14] = biological target: Gal(b1-3)GalNAc(b1-4)Gal(b1-4)Glc
How it was run: as §1

[15] = biological target: Gal(b1-3)GalNAc(b1-4)[Neu5Ac(a2-3)]Gal(b1-4)Glc
How it was run: as §1

Gal(b1-3)GlcNAc = biological target: Gal(b1-3)GlcNAc
How it was run: as §1

[16] = biological target: Gal(b1-3)GlcNAc(a1-3)Gal(b1-4)GlcNAc
How it was run: as §1

[17] = biological target: Gal(b1-3)GlcNAc(a1-6)Gal(b1-4)GlcNAc
How it was run: as §1

Gal(b1-3)GlcNAc(b1-2)Man = biological target: Gal(b1-3)GlcNAc(b1-2)Man
How it was run: as §1

[18] = biological target: Gal(b1-3)GlcNAc(b1-2)Man(a1-3)[Gal(b1-3)GlcNAc(b1-2)Man(a1-6)]Man(b1-4)GlcNAc(b1-4)GlcNAc
How it was run: as §1

[19] = biological target: Gal(b1-3)GlcNAc(b1-2)Man(a1-3)[Gal(b1-3)GlcNAc(b1-2)Man(a1-6)]Man(b1-4)GlcNAc(b1-4)[Fuc(a1-6)]GlcNAc
How it was run: as §1

[20] = biological target: Gal(b1-3)GlcNAc(b1-2)Man(a1-3)[GlcNAc(b1-4)][Gal(b1-3)GlcNAc(b1-2)Man(a1-6)]Man(b1-4)GlcNAc(b1-4)GlcNAc
How it was run: as §1

[21] = biological target: Gal(b1-3)GlcNAc(b1-2)[Gal(b1-3)GlcNAc(b1-6)]Man(a1-6)[Gal(b1-3)GlcNAc(b1-2)Man(a1-3)]Man(b1-4)GlcNAc(b1-4)GlcNAc
How it was run: as §1

[22] = biological target: Gal(b1-3)GlcNAc(b1-3)Gal(b1-3)GlcNAc
How it was run: as §1

[23] = biological target: Gal(b1-3)GlcNAc(b1-3)Gal(b1-4)Glc
How it was run: as §1

[24] = biological target: Gal(b1-3)GlcNAc(b1-3)Gal(b1-4)GlcNAc
How it was run: as §1

[25] = biological target: Gal(b1-3)GlcNAc(b1-3)Gal(b1-4)GlcNAc(b1-2)Man(a1-3)[Gal(b1-3)GlcNAc(b1-3)Gal(b1-4)GlcNAc(b1-2)Man(a1-6)]Man(b1-4)GlcNAc(b1-4)GlcNAc
How it was run: as §1

B1: SJCP1084 (Schistosoma japonicum) (protein)
chain: MRIINLVIISTALLLINLLQTKSQANGEDTKNGTPDDPGLTKSTELKVEVQALLKDKKTNMRVKWNENLLDNTKPEYHNLRDEACELLLQIVRSVVPLSQDDGECKDVTFTKYVVGTKDGAVNVKLTITFKDSVAINQKPMDLKLKLENDFKNLQSESTLKATKPTFTVKVEKRLIPISKPQTTPPTTAKNDASKENVGDIGGEDSTVPTAAPATAASANEEKDEGDKDNKDSQHPNVLTSNVNDRNLIIALVALMILAIGVALTAAVKQR
- glycan array binding signal (z-score) [1]: -0.709
- glycan array binding signal (z-score) [2]: 0.448
- glycan array binding signal (z-score) [3]: -0.457
- glycan array binding signal (z-score) [4]: -0.882
- glycan array binding signal (z-score) [5]: -0.073
- glycan array binding signal (z-score) [6]: -0.203
- glycan array binding signal (z-score) (Gal(a1-3)GalNAc): -0.418
- glycan array binding signal (z-score) [7]: 2
- glycan array binding signal (z-score) [8]: 3.06
- glycan array binding signal (z-score) (Gal(a1-4)Gal(b1-4)Glc): -0.509
- glycan array binding signal (z-score) (Gal(a1-4)Gal(b1-4)GlcNAc): 0.984
- glycan array binding signal (z-score) [9]: 1.42
- glycan array binding signal (z-score) [10]: -0.643
- glycan array binding signal (z-score) (Gal(a1-4)GlcNAc): -0.675
- glycan array binding signal (z-score) (Gal(a1-6)Glc): -0.741
- glycan array binding signal (z-score) (Gal(b1-2)Gal): -0.432
- glycan array binding signal (z-score) (Gal(b1-3)Gal): 0.48
- glycan array binding signal (z-score) (Gal(b1-3)Gal(b1-4)GlcNAc): 0.899
- glycan array binding signal (z-score) (Gal(b1-3)GalNAc): 0.536
- glycan array binding signal (z-score) [11]: 0.564
- glycan array binding signal (z-score) [12]: -0.266
- glycan array binding signal (z-score) (Gal(b1-3)GalNAc(b1-3)Gal): -0.96
- glycan array binding signal (z-score) [13]: 1.51
- glycan array binding signal (z-score) [14]: 0.275
- glycan array binding signal (z-score) [15]: 0.579
- glycan array binding signal (z-score) (Gal(b1-3)GlcNAc): -0.357
- glycan array binding signal (z-score) [16]: -0.783
- glycan array binding signal (z-score) [17]: -0.268
- glycan array binding signal (z-score) (Gal(b1-3)GlcNAc(b1-2)Man): -0.355
- glycan array binding signal (z-score) [18]: 0.943
- glycan array binding signal (z-score) [19]: 0.561
- glycan array binding signal (z-score) [20]: 0.08
- glycan array binding signal (z-score) [21]: 0.316
- glycan array binding signal (z-score) [22]: -0.391
- glycan array binding signal (z-score) [23]: 0.259
- glycan array binding signal (z-score) [24]: -1.31
- glycan array binding signal (z-score) [25]: 0.617
